In this assay the target is mutated human FGFR2 on AN3-CA cells (human) (UniProt P21802). Put plainly: FACS, 5 ug/ml, AN3CA cells. Background: In flow cytometry, cells or beads pass a laser one at a time.

By UniProt entry, the sequences of proteins in these tests, tags left out. Where a name states a change or a piece, a line headed by the entry shows the natural chain unless it says otherwise. Chains listed by the source or under a name are the forms on record and can include a tag or linker.
mutated human FGFR2 on AN3-CA cells (P21802, form named): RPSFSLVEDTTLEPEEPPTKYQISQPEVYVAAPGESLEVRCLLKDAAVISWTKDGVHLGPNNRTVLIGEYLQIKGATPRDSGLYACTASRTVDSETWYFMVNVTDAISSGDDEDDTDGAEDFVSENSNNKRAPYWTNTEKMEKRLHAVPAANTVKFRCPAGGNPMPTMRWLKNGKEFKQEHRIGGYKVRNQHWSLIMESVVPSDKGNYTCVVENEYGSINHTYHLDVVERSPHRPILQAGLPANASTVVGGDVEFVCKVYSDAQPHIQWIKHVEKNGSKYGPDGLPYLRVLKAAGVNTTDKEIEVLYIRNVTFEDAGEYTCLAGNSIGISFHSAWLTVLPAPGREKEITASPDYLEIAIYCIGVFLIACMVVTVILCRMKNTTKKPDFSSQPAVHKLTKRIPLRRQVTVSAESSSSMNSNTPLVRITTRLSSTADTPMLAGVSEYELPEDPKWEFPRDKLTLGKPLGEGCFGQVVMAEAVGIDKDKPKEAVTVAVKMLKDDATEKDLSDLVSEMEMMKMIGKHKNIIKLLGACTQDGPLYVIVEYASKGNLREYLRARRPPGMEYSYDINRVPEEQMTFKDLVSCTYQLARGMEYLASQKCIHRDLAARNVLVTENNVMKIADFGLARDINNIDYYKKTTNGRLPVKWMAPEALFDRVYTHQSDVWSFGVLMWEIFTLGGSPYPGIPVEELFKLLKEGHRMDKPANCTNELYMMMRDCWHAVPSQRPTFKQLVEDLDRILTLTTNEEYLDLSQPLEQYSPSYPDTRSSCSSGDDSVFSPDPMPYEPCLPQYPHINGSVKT

Results are given in words; binding and its absence hold for the method and conditions named. Some results given as binding are weak or reduced against the parent protein; the word gives no strength.

B1: M021-H02-hIgG1 (antibody, V domains shown)
VH: EVQLLESGGGLVQPGGSLRLSCAASGFTFSNYGIHWVRQAPGKGLEWVAVISYDGSNKYYADSVKGRFTISRDNSKNTLYLQMNSLRAEDTAMYYCARDSSSAEDYWGQGTLVTVSS
VL: QSVLTQPPSASGTPGQRVTISCSGSSSNTGSNTVNWYQQLPGTAPKLLIYRNNQRPSGVPDRFSGSKSGTSASLAISGLRSEDEADYYCETWDSNTRGVVFGGGTKLTVL
With B1, the binding entry is “binds”.

Source of the values: patent US20140322220A1.
